No constants are given. Whether binding was seen depends on the method and setting. Binding seen in cells or lysates may run through a third protein. Some binding calls cover weakened binding; strength is not graded here.

Chains of the proteins cited; added tags and fusions are not shown.
UniProt P52480: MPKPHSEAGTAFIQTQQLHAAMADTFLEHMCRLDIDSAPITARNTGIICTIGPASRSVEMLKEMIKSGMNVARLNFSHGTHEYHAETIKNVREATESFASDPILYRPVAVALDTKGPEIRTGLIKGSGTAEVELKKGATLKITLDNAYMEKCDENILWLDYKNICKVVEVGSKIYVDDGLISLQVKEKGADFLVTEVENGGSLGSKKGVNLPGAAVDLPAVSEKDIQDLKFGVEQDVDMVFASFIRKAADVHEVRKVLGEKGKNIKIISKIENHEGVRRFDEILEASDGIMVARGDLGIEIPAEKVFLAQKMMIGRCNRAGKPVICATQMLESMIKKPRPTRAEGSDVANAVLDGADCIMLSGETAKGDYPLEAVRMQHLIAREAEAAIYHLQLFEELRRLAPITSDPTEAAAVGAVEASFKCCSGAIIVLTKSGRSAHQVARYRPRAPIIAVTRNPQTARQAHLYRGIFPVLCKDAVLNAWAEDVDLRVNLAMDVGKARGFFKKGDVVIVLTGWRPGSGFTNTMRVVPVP
UniProt Q91UZ4: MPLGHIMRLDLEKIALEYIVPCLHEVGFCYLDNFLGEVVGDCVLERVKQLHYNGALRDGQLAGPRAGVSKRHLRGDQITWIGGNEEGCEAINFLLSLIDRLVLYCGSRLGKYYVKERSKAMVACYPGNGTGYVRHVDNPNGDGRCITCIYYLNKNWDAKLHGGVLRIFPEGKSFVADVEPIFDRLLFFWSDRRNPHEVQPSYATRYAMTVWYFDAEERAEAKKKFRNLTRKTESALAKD

In test [1] the target is pyruvate kinase M2 (mouse (endogenous in primary mouse brain cells)) (UniProt P52480). Put plainly: co-IP; cell lysate; primary antibody (EGLN3, PKM2 or IgG) 24 h at 4 °C, protein A + G agarose 2 h at 4 °C, washed with PBS, Western blot; forward and reverse. Background: In western blotting, separated proteins are transferred to a membrane and probed.
For test [2], the target named is prolyl hydroxylase EGLN3 (mouse (endogenous in primary mouse brain cells)) (UniProt Q91UZ4). The test is described as above.

With “prolyl hydroxylase EGLN3 (from UniProt Q91UZ4 1-239) (enzyme)”, in test [1], the binding result is “binds”.

Turning to “pyruvate kinase M2 (from UniProt P52480 1-531) (enzyme)”, the binding entry in test [2] is “binds”.
